# Taken from: PubChem BioAssay AID686938 (Drosophila RNAi Screening Center, 2013)
# Screen: 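Looking for CRAC channel components and the factors controlling them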 (primary screen)
# Cell system: Drosophila S2R+ cells
# Knock-down reagent: long dsRNA against Drosophila genes, about 0.25 µg dsRNA per well, roughly 10,000 cells
# Duration: 5 days of knock-down before the calcium assay
# Conditions: thapsigargin (SERCA pump blocker) to empty calcium stores; entry signal taken 4 min after adding it
# Measured: 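Per-well fluo-4 fluorescence in two replicates, unnormalised, measured in resting cells and 4 min after store depletion by the SERCA blocker thapsigargin; ratio of the two present in few wells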
# Reading the numbers: calcium entry signal: higher = stronger calcium signal after store depletion; entry to resting ratio: higher = more calcium entry relative to resting level; resting calcium signal: higher = higher resting calcium signal
# Rule for the call: 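Hit if the duplicate-averaged plate z-score for entry over resting signal is under −3; wells with weak total dye signal (Fmax z < −2) or more than 5 off-targets removed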
# Calls: active = strongly reduced calcium entry; inactive = no strong reduction
# In all, the deposit lists about 23,000 reagents; shown is an unselected part of those with a known target gene and a result. Of all reagents, 75 (0.33%) were called active. 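Raw plate signals without normalisation; calls rest on plate z-scores that were not deposited; ratio present for only 364 wells.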 Reagents against one gene are numbered here. Reagent sequences are not shown. Not stated in the record: the dose of the treatment.
The first 3 records, to show the layout:
target,dsRNA no.,"calcium entry signal, replicate 1 (fluorescence units)","calcium entry signal, replicate 2 (fluorescence units)",entry to resting ratio,"resting calcium signal, replicate 1 (fluorescence units)","resting calcium signal, replicate 2 (fluorescence units)",Call
CG1636,1,2.58e7,3.60e7,,1.22e7,1.70e7,inactive
CG6178,1,2.96e7,3.08e7,,1.39e7,1.40e7,inactive
Tsp42Er (Tetraspanin 42Er),1,3.09e7,3.49e7,,1.41e7,1.61e7,inactive

Main list, repeating the preview:
target,dsRNA no.,"calcium entry signal, replicate 1 (fluorescence units)","calcium entry signal, replicate 2 (fluorescence units)",entry to resting ratio,"resting calcium signal, replicate 1 (fluorescence units)","resting calcium signal, replicate 2 (fluorescence units)",Call
CG1636,1,2.58e7,3.60e7,,1.22e7,1.70e7,inactive
CG6178,1,2.96e7,3.08e7,,1.39e7,1.40e7,inactive
Tsp42Er (Tetraspanin 42Er),1,3.09e7,3.49e7,,1.41e7,1.61e7,inactive
FLASH (FLICE-associated huge protein),1,4.05e7,2.07e7,,1.88e7,1.11e7,inactive
lncRNA:CR34024 (long non-coding RNA:CR34024),1,3.92e7,2.41e7,,1.69e7,1.36e7,inactive
Sik2 (Salt-inducible kinase 2),1,5.68e7,6.01e7,2.2,2.57e7,2.37e7,inactive
CG32061,1,3.80e7,3.96e7,,2.31e7,1.87e7,inactive
Epg5 (ectopic P-granules autophagy protein 5),1,3.84e7,3.57e7,,6.67e7,1.50e7,inactive
Vps15 (Vacuolar protein sorting 15),1,4.41e7,5.06e7,,2.14e7,2.52e7,inactive
Gpo1 (Glycerophosphate oxidase 1),1,2.82e7,2.55e7,,1.41e7,1.53e7,inactive
Kebab (Kinetochore and EB1 associated basic protein),1,4.53e7,,,2.67e7,,inactive
Dpck (Dephospho-CoA kinase),1,4.43e7,3.53e7,,2.20e7,1.73e7,inactive
CG6209,1,3.39e7,5.53e7,,1.75e7,2.23e7,inactive
rt (rotated abdomen),1,2.92e7,4.02e7,,1.54e7,1.74e7,inactive
CG6443,1,4.01e7,,,1.94e7,,inactive
CG4955,1,3.30e7,4.13e7,,1.56e7,1.87e7,inactive
sesB (stress-sensitive B),1,3.71e7,3.55e7,,1.82e7,1.96e7,inactive
plum,1,2.49e7,3.08e7,,1.19e7,1.48e7,inactive
Arglu1 (Arginine and glutamate rich 1),1,4.05e7,5.21e7,,1.70e7,2.01e7,inactive
CG9961,1,4.04e7,4.83e7,,1.97e7,2.17e7,inactive
CG9961,2,3.19e7,3.48e7,,1.87e7,1.59e7,inactive
lncRNA:CR32835 (long non-coding RNA:CR32835),1,3.03e7,4.19e7,,1.60e7,1.74e7,inactive
CrzR (Corazonin receptor),1,3.24e7,4.37e7,,1.79e7,1.89e7,inactive
CrzR (Corazonin receptor),2,3.07e7,5.00e7,,1.62e7,2.12e7,inactive
